Measured values: the supplement of paper PMC10849652
Some of the results follow.

The chains behind the UniProt entries cited, without tags or fusion partners. Where a name states a change or a piece, a line headed by the entry shows the natural chain unless it says otherwise.
UniProt Q99584: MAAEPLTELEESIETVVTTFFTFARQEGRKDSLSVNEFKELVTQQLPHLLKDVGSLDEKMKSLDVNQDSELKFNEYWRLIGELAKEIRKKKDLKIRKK
UniProt P82979: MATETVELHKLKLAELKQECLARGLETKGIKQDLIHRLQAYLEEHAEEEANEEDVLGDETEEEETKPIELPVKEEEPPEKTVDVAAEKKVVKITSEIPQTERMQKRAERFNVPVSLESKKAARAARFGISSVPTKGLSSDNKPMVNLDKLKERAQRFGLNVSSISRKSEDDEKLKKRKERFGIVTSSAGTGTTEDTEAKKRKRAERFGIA
UniProt Q9Y3A5: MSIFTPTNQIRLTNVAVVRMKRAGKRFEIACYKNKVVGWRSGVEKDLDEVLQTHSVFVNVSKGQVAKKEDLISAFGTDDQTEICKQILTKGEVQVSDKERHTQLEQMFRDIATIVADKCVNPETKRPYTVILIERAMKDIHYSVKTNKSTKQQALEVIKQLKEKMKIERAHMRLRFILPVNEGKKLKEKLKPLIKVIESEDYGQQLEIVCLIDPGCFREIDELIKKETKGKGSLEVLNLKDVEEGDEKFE
UniProt Q92503: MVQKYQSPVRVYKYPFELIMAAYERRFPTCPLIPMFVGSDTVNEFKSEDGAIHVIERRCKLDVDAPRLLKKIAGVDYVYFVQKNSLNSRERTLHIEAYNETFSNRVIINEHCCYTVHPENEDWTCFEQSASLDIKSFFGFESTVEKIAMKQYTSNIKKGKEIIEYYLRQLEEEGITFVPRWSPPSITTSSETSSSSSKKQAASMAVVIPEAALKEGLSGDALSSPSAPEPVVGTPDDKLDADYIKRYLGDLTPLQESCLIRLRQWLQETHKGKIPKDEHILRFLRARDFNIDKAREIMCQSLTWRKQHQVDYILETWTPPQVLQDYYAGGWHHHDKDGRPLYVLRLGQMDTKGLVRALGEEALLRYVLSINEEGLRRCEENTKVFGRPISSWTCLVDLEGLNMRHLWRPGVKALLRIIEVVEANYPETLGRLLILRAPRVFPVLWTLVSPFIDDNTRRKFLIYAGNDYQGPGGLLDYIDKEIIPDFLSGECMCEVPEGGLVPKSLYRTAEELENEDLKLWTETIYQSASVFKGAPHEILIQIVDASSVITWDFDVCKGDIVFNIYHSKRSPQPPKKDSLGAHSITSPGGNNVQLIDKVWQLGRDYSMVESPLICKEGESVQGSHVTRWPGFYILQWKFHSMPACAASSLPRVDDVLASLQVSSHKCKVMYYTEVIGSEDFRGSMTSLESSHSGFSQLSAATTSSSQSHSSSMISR
UniProt P31949: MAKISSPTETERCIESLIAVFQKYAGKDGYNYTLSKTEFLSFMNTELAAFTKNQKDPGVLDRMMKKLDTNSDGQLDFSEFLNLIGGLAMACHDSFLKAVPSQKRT
UniProt P22307: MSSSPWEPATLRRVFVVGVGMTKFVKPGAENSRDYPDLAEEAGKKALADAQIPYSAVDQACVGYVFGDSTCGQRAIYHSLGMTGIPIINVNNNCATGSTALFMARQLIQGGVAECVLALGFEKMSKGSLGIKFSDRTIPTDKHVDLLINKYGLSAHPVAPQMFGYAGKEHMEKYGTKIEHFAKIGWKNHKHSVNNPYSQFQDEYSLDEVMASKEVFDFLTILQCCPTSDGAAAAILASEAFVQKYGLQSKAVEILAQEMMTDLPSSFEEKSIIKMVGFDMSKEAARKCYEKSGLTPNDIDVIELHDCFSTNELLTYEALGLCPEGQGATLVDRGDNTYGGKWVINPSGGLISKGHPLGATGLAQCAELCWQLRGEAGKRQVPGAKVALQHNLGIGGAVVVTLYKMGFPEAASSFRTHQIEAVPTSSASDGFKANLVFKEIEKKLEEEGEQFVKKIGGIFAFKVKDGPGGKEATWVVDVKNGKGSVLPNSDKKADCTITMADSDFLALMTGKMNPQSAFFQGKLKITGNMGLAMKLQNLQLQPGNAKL
UniProt O15126: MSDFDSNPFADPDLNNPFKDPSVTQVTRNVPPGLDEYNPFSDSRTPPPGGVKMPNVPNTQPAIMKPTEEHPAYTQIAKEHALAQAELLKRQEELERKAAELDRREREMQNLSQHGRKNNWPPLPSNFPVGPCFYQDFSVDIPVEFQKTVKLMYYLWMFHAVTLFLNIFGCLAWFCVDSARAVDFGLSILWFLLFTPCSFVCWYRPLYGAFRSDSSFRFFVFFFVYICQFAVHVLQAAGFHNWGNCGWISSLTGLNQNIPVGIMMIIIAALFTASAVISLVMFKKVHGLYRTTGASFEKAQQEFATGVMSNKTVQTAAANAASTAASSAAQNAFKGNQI
UniProt O75298: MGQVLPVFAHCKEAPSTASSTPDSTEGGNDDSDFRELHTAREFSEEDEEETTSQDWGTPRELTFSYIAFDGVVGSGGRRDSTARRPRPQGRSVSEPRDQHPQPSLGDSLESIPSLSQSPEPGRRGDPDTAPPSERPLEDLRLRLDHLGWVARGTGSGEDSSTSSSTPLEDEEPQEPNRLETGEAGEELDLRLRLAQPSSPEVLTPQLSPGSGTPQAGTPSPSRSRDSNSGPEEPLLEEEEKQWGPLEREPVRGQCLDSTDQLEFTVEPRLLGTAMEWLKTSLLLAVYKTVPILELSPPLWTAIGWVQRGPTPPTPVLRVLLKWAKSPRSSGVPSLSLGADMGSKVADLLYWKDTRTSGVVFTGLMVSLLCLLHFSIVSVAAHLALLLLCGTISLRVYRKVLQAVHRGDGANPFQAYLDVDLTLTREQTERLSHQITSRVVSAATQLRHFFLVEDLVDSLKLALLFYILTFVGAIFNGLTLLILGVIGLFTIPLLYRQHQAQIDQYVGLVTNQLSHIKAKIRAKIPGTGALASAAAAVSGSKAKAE
UniProt Q99590: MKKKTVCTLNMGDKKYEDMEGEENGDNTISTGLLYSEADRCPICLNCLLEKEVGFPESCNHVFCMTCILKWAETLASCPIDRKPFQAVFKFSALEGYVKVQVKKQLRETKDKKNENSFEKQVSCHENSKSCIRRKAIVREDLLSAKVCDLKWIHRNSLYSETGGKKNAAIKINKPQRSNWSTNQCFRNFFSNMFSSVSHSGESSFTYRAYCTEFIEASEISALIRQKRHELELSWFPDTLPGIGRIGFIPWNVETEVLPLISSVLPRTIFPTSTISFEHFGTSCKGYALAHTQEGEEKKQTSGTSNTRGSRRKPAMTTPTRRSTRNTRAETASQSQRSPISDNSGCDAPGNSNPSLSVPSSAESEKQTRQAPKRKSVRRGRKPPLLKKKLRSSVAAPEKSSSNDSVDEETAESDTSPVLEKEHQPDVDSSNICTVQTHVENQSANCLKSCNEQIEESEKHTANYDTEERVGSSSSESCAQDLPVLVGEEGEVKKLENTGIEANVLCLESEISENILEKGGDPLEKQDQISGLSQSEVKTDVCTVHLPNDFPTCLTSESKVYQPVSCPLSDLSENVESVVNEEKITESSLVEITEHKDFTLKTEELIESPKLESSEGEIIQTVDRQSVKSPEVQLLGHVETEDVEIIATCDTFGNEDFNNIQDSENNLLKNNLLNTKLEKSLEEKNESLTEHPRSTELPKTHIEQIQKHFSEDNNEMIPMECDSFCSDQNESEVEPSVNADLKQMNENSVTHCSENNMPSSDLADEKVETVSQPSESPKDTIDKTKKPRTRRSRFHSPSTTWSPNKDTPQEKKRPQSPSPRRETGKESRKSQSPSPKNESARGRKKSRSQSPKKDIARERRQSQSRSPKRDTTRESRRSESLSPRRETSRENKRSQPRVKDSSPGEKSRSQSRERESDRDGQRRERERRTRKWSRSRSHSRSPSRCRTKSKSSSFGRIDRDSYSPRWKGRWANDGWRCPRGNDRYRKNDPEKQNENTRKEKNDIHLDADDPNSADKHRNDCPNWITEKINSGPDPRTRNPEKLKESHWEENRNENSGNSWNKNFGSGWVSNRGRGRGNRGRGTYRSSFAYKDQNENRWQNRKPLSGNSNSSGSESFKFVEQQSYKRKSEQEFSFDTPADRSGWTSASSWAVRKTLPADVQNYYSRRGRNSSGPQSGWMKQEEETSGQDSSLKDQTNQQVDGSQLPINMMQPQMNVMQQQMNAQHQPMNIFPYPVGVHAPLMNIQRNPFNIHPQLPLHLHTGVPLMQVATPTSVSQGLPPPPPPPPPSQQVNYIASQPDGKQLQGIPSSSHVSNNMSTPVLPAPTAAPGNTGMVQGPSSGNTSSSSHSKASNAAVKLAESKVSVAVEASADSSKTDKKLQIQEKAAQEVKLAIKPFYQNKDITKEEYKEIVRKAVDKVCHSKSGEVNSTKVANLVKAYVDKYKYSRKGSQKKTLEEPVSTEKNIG
UniProt Q9Y3I0: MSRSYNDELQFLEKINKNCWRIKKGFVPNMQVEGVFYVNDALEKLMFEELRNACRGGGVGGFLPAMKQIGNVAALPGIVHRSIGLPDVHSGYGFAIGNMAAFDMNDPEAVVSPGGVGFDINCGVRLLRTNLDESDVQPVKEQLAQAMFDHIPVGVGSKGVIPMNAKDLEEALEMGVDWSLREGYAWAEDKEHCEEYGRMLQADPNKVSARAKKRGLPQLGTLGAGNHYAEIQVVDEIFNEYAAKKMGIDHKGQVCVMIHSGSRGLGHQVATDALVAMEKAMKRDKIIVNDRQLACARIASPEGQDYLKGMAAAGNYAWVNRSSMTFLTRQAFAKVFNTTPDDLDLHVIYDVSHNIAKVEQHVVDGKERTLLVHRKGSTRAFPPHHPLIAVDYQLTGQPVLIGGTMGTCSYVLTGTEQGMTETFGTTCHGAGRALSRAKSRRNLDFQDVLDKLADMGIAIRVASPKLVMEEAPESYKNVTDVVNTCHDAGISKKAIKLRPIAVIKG
UniProt Q6UVJ0: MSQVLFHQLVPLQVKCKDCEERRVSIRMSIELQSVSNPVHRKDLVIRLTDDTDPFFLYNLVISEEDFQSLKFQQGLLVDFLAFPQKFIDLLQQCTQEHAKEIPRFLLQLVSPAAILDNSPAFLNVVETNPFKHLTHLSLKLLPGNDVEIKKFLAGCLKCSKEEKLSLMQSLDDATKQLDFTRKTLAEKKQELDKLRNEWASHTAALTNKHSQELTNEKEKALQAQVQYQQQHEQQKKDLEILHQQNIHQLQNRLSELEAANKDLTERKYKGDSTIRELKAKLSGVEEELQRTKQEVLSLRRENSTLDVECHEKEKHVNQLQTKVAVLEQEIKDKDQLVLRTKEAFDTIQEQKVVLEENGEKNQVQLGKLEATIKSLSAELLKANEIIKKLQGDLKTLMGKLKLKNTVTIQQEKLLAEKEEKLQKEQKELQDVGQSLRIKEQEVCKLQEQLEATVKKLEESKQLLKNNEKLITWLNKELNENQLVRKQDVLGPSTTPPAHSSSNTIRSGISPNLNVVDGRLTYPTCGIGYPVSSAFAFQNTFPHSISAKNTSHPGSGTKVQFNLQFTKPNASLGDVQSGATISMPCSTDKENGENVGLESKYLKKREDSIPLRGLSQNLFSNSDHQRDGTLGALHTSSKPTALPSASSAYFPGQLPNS
UniProt O95104: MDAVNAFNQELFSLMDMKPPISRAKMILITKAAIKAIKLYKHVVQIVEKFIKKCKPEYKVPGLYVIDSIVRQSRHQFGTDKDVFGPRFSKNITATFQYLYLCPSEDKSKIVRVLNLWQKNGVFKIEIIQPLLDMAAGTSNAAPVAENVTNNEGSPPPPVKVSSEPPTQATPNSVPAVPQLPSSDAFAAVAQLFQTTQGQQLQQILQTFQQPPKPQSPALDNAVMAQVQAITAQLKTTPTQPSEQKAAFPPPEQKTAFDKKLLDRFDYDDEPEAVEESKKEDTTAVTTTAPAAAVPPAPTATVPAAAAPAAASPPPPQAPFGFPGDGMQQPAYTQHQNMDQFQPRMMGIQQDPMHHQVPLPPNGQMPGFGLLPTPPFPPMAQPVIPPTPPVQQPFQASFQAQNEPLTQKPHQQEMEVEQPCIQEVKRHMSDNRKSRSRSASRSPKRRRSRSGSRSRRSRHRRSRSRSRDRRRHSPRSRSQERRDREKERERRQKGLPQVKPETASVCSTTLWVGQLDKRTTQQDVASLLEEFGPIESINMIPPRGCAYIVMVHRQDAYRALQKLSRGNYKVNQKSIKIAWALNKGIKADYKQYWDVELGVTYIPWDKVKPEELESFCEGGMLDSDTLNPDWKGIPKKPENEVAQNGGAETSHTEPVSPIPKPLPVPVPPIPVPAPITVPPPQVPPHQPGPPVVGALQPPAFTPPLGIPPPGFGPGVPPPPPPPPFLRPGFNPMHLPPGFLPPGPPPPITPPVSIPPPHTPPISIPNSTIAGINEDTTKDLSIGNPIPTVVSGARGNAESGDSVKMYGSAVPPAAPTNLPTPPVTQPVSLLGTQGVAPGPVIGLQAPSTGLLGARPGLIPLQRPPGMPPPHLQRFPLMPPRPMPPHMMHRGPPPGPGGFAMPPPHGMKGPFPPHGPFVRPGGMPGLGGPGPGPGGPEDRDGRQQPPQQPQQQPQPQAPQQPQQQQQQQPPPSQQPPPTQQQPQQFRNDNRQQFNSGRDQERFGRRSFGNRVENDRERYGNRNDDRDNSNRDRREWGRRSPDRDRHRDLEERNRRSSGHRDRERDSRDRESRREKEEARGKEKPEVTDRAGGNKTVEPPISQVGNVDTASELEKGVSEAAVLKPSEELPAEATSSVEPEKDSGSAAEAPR

Tests used:
Test in all cases: log2 fold change, soluble protein after heating vs DMSO (PISA); higher = thermal stabilisation; K562 cells, 10 uM, 30 min; active = over 0.2 and 3.5 SD of the protein, either way, in both replicates (recomputed)
saracatinib = compound: CN1CCN(CCOc2cc(OC3CCOCC3)c3c(Nc4c(Cl)ccc5c4OCO5)ncnc3c2)CC1 [saracatinib]
How it was run: (§1)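 Soluble protein was quantified by TMTpro 16plex LC-MS/MS after channel sums were equalised. It was obtained as the supernatant after 21,000xg for 90 min from pooled aliquots of K562 cells (2×10^6 cells/mL, 10 μM compound, 30 min) heated for 3 min across 48°C-58°C and extracted in PBS with 0.5% NP-40 at 4°C. Thermal stability values are relative to control samples and come from duplicates. They are given as log2 fold changes.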

sotrastaurin = compound: CN1CCN(c2nc(C3=C(c4c[nH]c5ccccc45)C(=O)NC3=O)c3ccccc3n2)CC1 [sotrastaurin]
How it was run: as §1

alvocidib = compound: CN1CC[C@H](c2c(O)cc(O)c3c(=O)cc(-c4ccccc4Cl)oc23)[C@H](O)C1 [alvocidib]
How it was run: as §1

Tubastatin A = compound: CN1CCc2c(c3ccccc3n2Cc2ccc(C(=O)NO)cc2)C1 [Tubastatin A]
How it was run: as §1

[1] = compound: CNC(=O)C1=CC=CC=C1NC2=NC(=NC=C2Cl)NC3=C(C=C(C=C3)N4CCOCC4)OC
How it was run: as §1

defactinib = compound: CNC(=O)c1ccc(Nc2ncc(C(F)(F)F)c(NCc3nccnc3N(C)S(C)(=O)=O)n2)cc1 [defactinib]
How it was run: as §1

rucaparib = compound: CNCc1ccc(-c2[nH]c3cc(F)cc4c3c2CCNC4=O)cc1 [rucaparib]
How it was run: as §1

[2] = compound: CNc1nc(-c2ccc3c(N)n[nH]c3c2)cc(N2C[C@@H](C(=O)NC3CCCCC3)CC[C@H]2C)n1
How it was run: as §1

encorafenib = compound: COC(=O)N[C@@H](C)CNc1nccc(-c2cn(C(C)C)nc2-c2cc(Cl)cc(NS(C)(=O)=O)c2F)n1 [encorafenib]
How it was run: as §1

[3] = compound: COC(=O)[C@H](CCSC)NC(=O)C1=C(C=C(C=C1)NC[C@H](CS)N)C2=CC=CC=C2
How it was run: as §1

Measured: log2 fold change

SAFB isoform 3 (UniProt Q15424)
inactive: saracatinib -0.074 | sotrastaurin -0.008 | alvocidib 0.286 | Tubastatin A 0.062 | [1] -0.104 | defactinib 0.19 | rucaparib 0.131 | [2] -0.016 | encorafenib 0.023 | [3] 0.016

SAP30BP (UniProt Q9UHR5)
inactive: saracatinib 0.051 | sotrastaurin 0.005 | alvocidib 0.037 | Tubastatin A -0.016 | [1] -0.049 | defactinib -0.023 | rucaparib 0.012 | [2] -0.141 | encorafenib -0.056 | [3] 0.037

SDHA (UniProt P31040)
inactive: saracatinib 0.049 | sotrastaurin 0.002 | alvocidib 0.038 | Tubastatin A -0.021 | [1] 0.013 | defactinib 0.012 | rucaparib -0.033 | [2] -0.036 | encorafenib -0.023 | [3] 0.01

S100A13 (UniProt Q99584)
inactive: saracatinib 0.04 | sotrastaurin 0.069 | alvocidib -0.006 | Tubastatin A 0.031 | [1] -0.009 | defactinib 0.011 | rucaparib -0.032 | [2] -0.039 | encorafenib -0.02 | [3] 0.008

RTN3 isoform 5 (UniProt O95197)
inactive: saracatinib -0.139 | sotrastaurin 0.114 | alvocidib -0.191 | Tubastatin A -0.158 | [1] 0.011 | defactinib -0.163 | rucaparib 0.163 | [2] 0.156 | encorafenib 0.063 | [3] -0.111

SARNP (UniProt P82979)
inactive: saracatinib 0.007 | sotrastaurin 0.075 | alvocidib 0.121 | Tubastatin A -0.032 | [1] -0.011 | defactinib 0.073 | rucaparib -0.029 | [2] -0.064 | encorafenib -0.085 | [3] 0.062

SBNO1 (UniProt A3KN83)
inactive: saracatinib 0.058 | sotrastaurin 0.017 | alvocidib -0.016 | Tubastatin A -0.032 | [1] 0.037 | defactinib -0.019 | rucaparib 0.004 | [2] 0.008 | encorafenib 0.02 | [3] -0.03

SBDS (UniProt Q9Y3A5)
inactive: saracatinib -0.012 | sotrastaurin -0.013 | alvocidib -0.07 | Tubastatin A 0.041 | [1] 0.006 | defactinib 0 | rucaparib -0.018 | [2] 0.06 | encorafenib 0.052 | [3] -0.032

SEC14L1 isoform 2 (UniProt Q92503)
inactive: saracatinib 0.097 | sotrastaurin -0.021 | alvocidib -0.019 | Tubastatin A -0.096 | [1] 0.144 | defactinib 0.149 | rucaparib 0.268 | [2] -0.057 | encorafenib -0.038 | [3] 0

SAE1 (UniProt Q9UBE0)
inactive: saracatinib 0.019 | sotrastaurin -0.01 | alvocidib -0.022 | Tubastatin A -0.007 | [1] 0.055 | defactinib -0.041 | rucaparib -0.041 | [2] -0.02 | encorafenib 0 | [3] -0.02

RWDD4 (UniProt Q6NW29)
inactive: saracatinib -0.114 | sotrastaurin -0.164 | alvocidib -0.02 | Tubastatin A 0.003 | [1] 0.047 | defactinib -0.036 | rucaparib 0.047 | [2] -0.041 | encorafenib 0.127 | [3] -0.005

SARAF (UniProt Q96BY9)
inactive: saracatinib 0.12 | sotrastaurin 0.03 | alvocidib -0.068 | Tubastatin A 0.105 | defactinib -0.177 | rucaparib -0.15 | [2] -0.231 | encorafenib -0.221 | [3] -0.056

SDF2L1 (UniProt Q9HCN8)
inactive: saracatinib -0.115 | sotrastaurin 0.024 | alvocidib 0.014 | Tubastatin A 0.028 | [1] 0.032 | defactinib 0.036 | rucaparib 0.003 | [2] -0.003 | encorafenib 0.012 | [3] 0.022

S100A11 (UniProt P31949)
inactive: saracatinib -0.026 | sotrastaurin 0.025 | alvocidib 0.03 | Tubastatin A -0.044 | [1] -0.018 | defactinib 0.002 | rucaparib 0.009 | [2] -0.017 | encorafenib -0.062 | [3] -0.05

5 successive entries from above:
SBNO1 (UniProt A3KN83)
inactive: saracatinib 0.058 | sotrastaurin 0.017 | alvocidib -0.016 | Tubastatin A -0.032 | [1] 0.037 | defactinib -0.019 | rucaparib 0.004 | [2] 0.008 | encorafenib 0.02 | [3] -0.03

SBDS (UniProt Q9Y3A5)
inactive: saracatinib -0.012 | sotrastaurin -0.013 | alvocidib -0.07 | Tubastatin A 0.041 | [1] 0.006 | defactinib 0 | rucaparib -0.018 | [2] 0.06 | encorafenib 0.052 | [3] -0.032

SEC14L1 isoform 2 (UniProt Q92503)
inactive: saracatinib 0.097 | sotrastaurin -0.021 | alvocidib -0.019 | Tubastatin A -0.096 | [1] 0.144 | defactinib 0.149 | rucaparib 0.268 | [2] -0.057 | encorafenib -0.038 | [3] 0

SAE1 (UniProt Q9UBE0)
inactive: saracatinib 0.019 | sotrastaurin -0.01 | alvocidib -0.022 | Tubastatin A -0.007 | [1] 0.055 | defactinib -0.041 | rucaparib -0.041 | [2] -0.02 | encorafenib 0 | [3] -0.02

RWDD4 (UniProt Q6NW29)
inactive: saracatinib -0.114 | sotrastaurin -0.164 | alvocidib -0.02 | Tubastatin A 0.003 | [1] 0.047 | defactinib -0.036 | rucaparib 0.047 | [2] -0.041 | encorafenib 0.127 | [3] -0.005

Next records

RSBN1 (UniProt Q5VWQ0)
inactive: saracatinib 0.023 | sotrastaurin -0.025 | alvocidib 0.132 | Tubastatin A 0.237 | [1] 0.085 | defactinib 0.096 | rucaparib 0.148 | [2] 0.073 | encorafenib 0.126 | [3] 0.009

SCARB2 (UniProt Q14108)
inactive: saracatinib 0.003 | sotrastaurin 0.088 | alvocidib -0.102 | Tubastatin A -0.019 | [1] 0.037 | defactinib -0.046 | rucaparib -0.09 | [2] -0.019 | encorafenib -0.043 | [3] 0

RTN4 (UniProt Q9NQC3)
inactive: saracatinib 0.073 | sotrastaurin 0.021 | alvocidib -0.019 | Tubastatin A -0.022 | [1] 0.018 | defactinib -0.019 | rucaparib -0.131 | [2] -0.032 | encorafenib 0.008 | [3] 0.038

SCP2 (UniProt P22307)
inactive: saracatinib -0.02 | sotrastaurin 0.024 | alvocidib -0.012 | Tubastatin A -0.008 | [1] 0.051 | defactinib 0 | rucaparib -0.032 | [2] -0.021 | encorafenib -0.02 | [3] -0.007

SCLY (UniProt Q96I15)
inactive: saracatinib 0.041 | sotrastaurin 0.035 | alvocidib -0.03 | Tubastatin A -0.019 | [1] -0.084 | defactinib -0.036 | rucaparib -0.028 | [2] -0.037 | encorafenib -0.007 | [3] 0.01

SCAMP1 (UniProt O15126)
inactive: saracatinib 0.023 | sotrastaurin 0.035 | alvocidib 0.03 | Tubastatin A 0.002 | [1] -0.033 | defactinib 0.009 | rucaparib -0.029 | [2] -0.042 | encorafenib -0.038 | [3] 0.019

RTN2 (UniProt O75298)
inactive: saracatinib 0.111 | sotrastaurin 0.07 | alvocidib -0.018 | Tubastatin A -0.138 | [1] 0.064 | defactinib -0.021 | rucaparib -0.012 | [2] 0.039 | encorafenib -0.048 | [3] 0.077

SCIN (UniProt Q9Y6U3)
inactive: saracatinib -0.031 | sotrastaurin -0.221 | alvocidib -0.102 | Tubastatin A -0.053 | [1] 0.012 | defactinib -0.035 | rucaparib 0.191 | [2] 0.106 | encorafenib 0.055 | [3] -0.042

RTN3 (UniProt O95197)
inactive: saracatinib -0.051 | sotrastaurin 0.05 | alvocidib -0.059 | Tubastatin A 0.001 | [1] -0.011 | defactinib 0.001 | rucaparib -0.116 | [2] -0.015 | encorafenib 0.009 | [3] 0.014

SCAF11 (UniProt Q99590)
active: alvocidib 1.25 | defactinib 0.579
inactive: saracatinib 0.075 | sotrastaurin 0.227 | Tubastatin A -0.052 | [1] -0.077 | rucaparib 0.35 | [2] -0.052 | encorafenib 0.042 | [3] 0.188

RYBP (UniProt Q8N488)
inactive: saracatinib 0.076 | sotrastaurin 0.006 | alvocidib 0.134 | Tubastatin A -0.064 | [1] 0.023 | defactinib -0.031 | rucaparib -0.038 | [2] -0.016 | encorafenib 0.009 | [3] 0.035

RTCB (UniProt Q9Y3I0)
inactive: saracatinib -0.007 | sotrastaurin 0.007 | alvocidib 0.031 | Tubastatin A -0.044 | [1] -0.003 | defactinib 0.064 | rucaparib 0.037 | [2] 0.013 | encorafenib 0.041 | [3] 0.006

RTCA (UniProt O00442)
inactive: saracatinib 0.051 | sotrastaurin -0.003 | alvocidib -0.036 | Tubastatin A -0.011 | [1] 0.025 | defactinib -0.014 | rucaparib 0.022 | [2] -0.054 | encorafenib 0.002 | [3] -0.01

SASS6 (UniProt Q6UVJ0)
inactive: saracatinib -0.09 | sotrastaurin -0.194 | alvocidib -0.317 | Tubastatin A 0.095 | [1] 0.006 | defactinib -0.052 | [2] 0.098 | [3] 0.034

SCAF4 (UniProt O95104)
inactive: saracatinib 0.114 | sotrastaurin -0.013 | alvocidib 0.043 | Tubastatin A -0.004 | [1] -0.07 | defactinib -0.047 | rucaparib 0.124 | [2] 0.008 | encorafenib 0.017 | [3] -0.002

SDHD (UniProt O14521)
inactive: saracatinib 0.091 | sotrastaurin 0.017 | alvocidib -0.081 | Tubastatin A -0.033 | [1] 0.146 | defactinib 0.023 | rucaparib 0.054 | [2] -0.072 | encorafenib -0.081 | [3] 0.177
